Patent US11897969B2, “Inhibition of oxidation-specific epitopes to treat ischemic reperfusion injury” (The Regents of the University of California, priority 2017, dated 2024)
For at least one compound, name, drawing or mass did not settle the structure.

Test system: neonatal rat cardiomyocytes (NNCM)
Assay: In vitro OxPC treatment and assessment of cell viability (calcein-AM / ethidium homodimer-1)
Type: cell-based
Conditions: 10 μM lipid, 4 hours
Description: Cell culture of rat cardiomyocytes. All animal experiments performed conform to the NIH guidelines regarding animal experimentation. Neonatal rat cardiomyocytes (NNCM) were isolated from 1-2 day old Sprague-Dawley rat pups. Whole hearts were excised from rat pups by midline sternotomy after cervical dislocation. Hearts were washed and minced to adequately break up macroscopic structures before re-washing with cold filter sterilized phosphate buffered saline (PBS) containing 10 g/L of glucose to remove red blood cells and debris. Repeated enzymatic digestion of heart fragments was performed with collagenase (740U), trypsin (370U), and DNase (2880U) (Worthington Biochemical) agitating at 35° C. for three 10-minute and three 7-minute digestions. […]
In vitro OxPC treatment and assessment of cell viability. […] Plates were then washed with PBS before NNCM were analyzed for cell viability using vital dyes, calcein-acetoxymethyl ester (AM) and ethidium homodimer-1 (Invitrogen). Mitochondrial permeability after exposure to OxPL molecules was monitored by fluorescence microscopy using a solution of calcein-AM fluorescent dye with cobalt chloride (CoCl2) applied to cardiomyocytes cultured on glass coverslips.

CCCCCCCCCCCCCCCC(=O)OC[C@H](COP(=O)([O-])OCC[N+](C)(C)C)OC(=O)CCCCCCCC=O [PONPC, 1-palmitoyl-2-(9-oxo)nonanoyl-sn-glycero-3-phosphocholine]
cell death: 81.2.6±15.1%
